Assay results from patent publication US20110117165A1, “IMPLANTABLE BONE GRAFT MATERIALS” (AFFINERGY, INC., priority 2009, published 2011).
Results are given in words; binding and its absence hold for the method and conditions named. Some results given as binding are weak or reduced against the parent protein; the word gives no strength.

Protein sequences, listed by entry. Tags and fused reporters are not part of them. Residues count along the entry.
UniProt P22003, residues 317-454: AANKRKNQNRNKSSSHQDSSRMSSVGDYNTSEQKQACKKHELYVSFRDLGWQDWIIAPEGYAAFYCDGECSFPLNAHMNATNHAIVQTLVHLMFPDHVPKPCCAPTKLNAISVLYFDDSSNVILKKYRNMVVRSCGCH
UniProt P22004, residues 382-513: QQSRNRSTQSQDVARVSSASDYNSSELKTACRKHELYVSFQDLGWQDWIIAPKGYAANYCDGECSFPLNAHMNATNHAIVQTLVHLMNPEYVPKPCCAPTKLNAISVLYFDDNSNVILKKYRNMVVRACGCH
UniProt P18075, residues 293-431: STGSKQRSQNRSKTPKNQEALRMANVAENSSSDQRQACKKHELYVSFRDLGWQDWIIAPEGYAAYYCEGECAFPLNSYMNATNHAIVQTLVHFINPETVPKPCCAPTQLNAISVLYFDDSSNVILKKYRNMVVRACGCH
UniProt P12643, residues 283-396: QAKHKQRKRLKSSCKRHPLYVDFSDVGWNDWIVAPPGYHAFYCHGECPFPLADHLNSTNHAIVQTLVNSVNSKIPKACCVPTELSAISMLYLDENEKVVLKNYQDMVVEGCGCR

Key:
GDF-7 = biological target: T1, GDF-7 (UniProt Q7Z4P5); experiment: phage display selection on immobilized GDF-7
T1 sequence (looked up): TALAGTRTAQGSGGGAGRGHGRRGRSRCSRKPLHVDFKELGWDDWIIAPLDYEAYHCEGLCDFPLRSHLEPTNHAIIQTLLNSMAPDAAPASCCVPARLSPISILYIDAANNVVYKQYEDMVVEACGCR

BMP-5 = BMP-5 (UniProt P22003); experiment: ELISA, biotinylated peptide on streptavidin plate, BMP at 100 and 10 nM
BMP-6 = BMP-6 (UniProt P22004); experiment: as above
BMP-7 = BMP-7 (UniProt P18075); experiment: ELISA, biotinylated peptide on streptavidin plate, BMP in solution
BMP-2 = biological target: T2, BMP-2 (UniProt P12643 283-396); experiment: ELISA, biotinylated peptide on streptavidin plate, BMP-2 at 200, 20, 2 nM
T2 construct: also called bone morphogenic protein 2

Measured: binding

SSGPREIWDSLVGVVNPGWSR (biotinylated for the streptavidin plate assay of FIG. 14C (position not given)) [BMP binding peptide SEQ ID NO: 5]
binds: GDF-7 | BMP-5 | BMP-6

SSVAEWALRSWEGMRVGEASR (biotinylated for the streptavidin plate assay of FIG. 14C (position not given)) [BMP binding peptide SEQ ID NO: 7]
binds: GDF-7 | BMP-5 | BMP-6

GGALGFPLKGEVVEGWA (biotinylated for the streptavidin plate assay of FIG. 14 (position not given)) [BMP binding peptide SEQ ID NO: 2]
not listed: GDF-7
binds: all other assays above

GGGAWEAFSSLSGSRV (biotinylated for the streptavidin plate assay of FIG. 14 (position not given)) [BMP binding peptide SEQ ID NO: 1]
not listed: GDF-7
binds: all other assays above

SSGGVGGWALFETLRGKEVSR (biotinylated for the streptavidin plate assay of FIG. 14C (position not given)) [BMP binding peptide SEQ ID NO: 6]
binds: GDF-7 | BMP-5 | BMP-6
